Like-named read-outs stand apart in the source and are kept apart here.

This is an account of results in PMC10342533, “Novel Tetrazole Derivatives Targeting Tubulin Endowed with Antiproliferative Activity against Glioblastoma Cells” (International Journal of Molecular Sciences, 2023).

The subject of test [1] is HeLa (cervix epithelioid carcinoma). Nature of the test: Cell growth inhibition, MTT assay, HeLa. Format: cell-based. As to conditions: Homo sapiens, read-out: IC50 HeLa. The method, then: (§1) The ability of the synthesized compounds to inhibit the cell proliferation of human cancer cell lines was assayed by measuring cell viability through the use of the MTT method 72 h after treatment. For this purpose, representative cell lines of the most frequent kinds of cancer were selected, including the following: HeLa (cervix epithelioid carcinoma), MCF7 (breast adenocarcinoma), U87 MG (glioblastoma), T98G (temozolomide resistant glioblastoma), HepG2 (hepatocellular carcinoma), HCT8 (colorectal carcinoma), and HT-29 (colon adenocarcinoma).
(§2) The cell lines were obtained from ATTC (Manassas, VA, USA). […] The cells were periodically tested for Mycoplasma infection by using a MycoAlert kit (Lonza, Norwest, Australia), and only Mycoplasma-free cells were used in the experiments.
(§3) Then, every compound was added (10 µL/well) to a final concentration of 10 µM. Untreated cells were used as negative controls. The antiproliferative activity of compounds was measured 72 h after drug exposure through the MTT assay. […] For this purpose, compounds were used at different concentrations, ranging from 10^−10 to 10^−2 M. Measurements were performed in triplicate, and each experiment was repeated three times. The IC50 values were determined using Origin software (version 9.6, OriginLab, Washington, DC, USA).

In test [2] the test system is HepG2 (hepatocellular carcinoma). The test is described as follows: Cell growth inhibition, MTT assay, HepG2. Format: cell-based. As to conditions: Homo sapiens, HepG2, 72 h, read-out: IC50 HepG2. As to the method:
as §1, §2, §3

Test [3] relates to U87 MG (glioblastoma). Nature of the test: Cell growth inhibition, MTT assay, U87 MG. Format: cell-based. The note with it: Homo sapiens, U-87 MG, read-out: IC50 U87 MG. As to the method:
as §1, §2, §3

The subject of test [4] is HT-29 (colon adenocarcinoma). Nature of the test: Cell growth inhibition, MTT assay, HT-29, without or with verapamil. Format: cell-based, human. The method, then: as §1
Multidrug resistance (MDR) proteins, especially P-glycoprotein (P-gp), are often involved in resistance mechanisms affecting tubulin-binding drugs that are frequently related to the failure of cancer therapies. […] These pumps are also part of the blood–brain barrier.
as §2, §3

Test [5] deals with HCT8 (colorectal carcinoma). The test is described as follows: Cell growth inhibition, MTT assay, HCT8. It counts as cell-based. The note with it: Homo sapiens, HCT-8, 72 h, read-out: IC50 HCT8. As to the method: as §1, §2, §3
Test [6] concerns T98G (temozolomide resistant glioblastoma). Nature of the test: Cell growth inhibition, MTT assay, T98G. Format: cell-based. The note with it: Homo sapiens, read-out: IC50 T98G. The method, then: as §1, §2, §3

Regarding `COc1cc2c(c(OC)c1OC)-c1ccc(OC)c(=O)cc1[C@@H](NC(C)=O)CC2` [Colchicine, colchicine, reference compound], the IC50 worked out at 9 nM in test [1] (72 h); 9.4 ± 0.1 nM in test [1]; 29 nM in test [2]; 31 nM in test [3] (72 h); 31.2 ± 0.2 nM in test [3]; 375 nM in test [4] (Homo sapiens, HT-29, 72 h, read-out: IC50 HT-29). The IC50 in test [4] (Homo sapiens, HT-29, read-out: IC50 HT-29) worked out at 375 ± 4 nM; in test [4] (read-out: IC50 HT-29*, MTT, mean ± SD, Table S1, in the presence of verapamil (10 µM)) it was 302 ± 3.1 nM; in test [5], 291 nM; in test [6] (72 h), 37 nM; in test [6] it was 37.2 ± 0.1 nM.
